Experimental findings from US6306649 are described below.

Chains of the proteins cited; added tags and fusions are not shown. Lines headed by an entry give the natural chain unless they say otherwise; changes in a name come on top.
UniProt P04386: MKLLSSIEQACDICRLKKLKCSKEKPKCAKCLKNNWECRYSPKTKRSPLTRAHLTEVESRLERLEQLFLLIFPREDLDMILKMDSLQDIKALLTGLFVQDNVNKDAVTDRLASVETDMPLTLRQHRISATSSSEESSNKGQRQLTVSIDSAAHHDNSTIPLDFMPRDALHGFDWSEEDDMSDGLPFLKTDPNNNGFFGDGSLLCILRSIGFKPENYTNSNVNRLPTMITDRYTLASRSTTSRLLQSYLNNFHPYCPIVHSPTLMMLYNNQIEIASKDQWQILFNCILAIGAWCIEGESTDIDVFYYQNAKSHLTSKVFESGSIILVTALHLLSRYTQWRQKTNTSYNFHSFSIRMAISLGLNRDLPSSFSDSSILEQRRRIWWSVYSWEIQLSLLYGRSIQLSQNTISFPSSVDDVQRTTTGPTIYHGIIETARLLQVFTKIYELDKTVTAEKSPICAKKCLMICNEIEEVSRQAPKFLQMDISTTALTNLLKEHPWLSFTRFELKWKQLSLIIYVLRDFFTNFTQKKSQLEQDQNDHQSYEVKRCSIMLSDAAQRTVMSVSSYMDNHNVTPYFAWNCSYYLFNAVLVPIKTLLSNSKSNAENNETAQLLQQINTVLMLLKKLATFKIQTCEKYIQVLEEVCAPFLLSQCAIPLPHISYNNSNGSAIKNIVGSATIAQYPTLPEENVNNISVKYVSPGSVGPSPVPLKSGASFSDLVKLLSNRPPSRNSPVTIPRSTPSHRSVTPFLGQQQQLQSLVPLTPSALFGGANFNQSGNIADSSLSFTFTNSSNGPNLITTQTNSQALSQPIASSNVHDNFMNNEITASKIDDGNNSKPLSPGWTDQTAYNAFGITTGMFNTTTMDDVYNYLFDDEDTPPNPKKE

For at least one entry, the source does not settle the construct or the ends of the probe.

The target of series [1] is GAL4 DNA binding domain fused to VP16(411-490) (Saccharomyces cerevisiae) (UniProt P04386). As to the kind of experiment: activity in cells. Conditions: [53,60,61 (printed Q read as G)]; SEAP reporter stably integrated in HT1080 B cells; 1 to 4 activation domains; protein in cells; protein details: C-terminal HSV VP16 411-490; letters built from the parent sequence and the stated change.

Series [2] concerns the target GAL4 DNA binding domain fused to p65(361-550) (Saccharomyces cerevisiae) (UniProt P04386). As to the kind of experiment: activity in cells. Conditions: [53,60,61 (printed Q read as G)]; SEAP reporter stably integrated in HT1080 B cells; 1 to 6 activation domains; protein in cells; protein details: C-terminal human p65(361-550); letters built from the parent sequence and the stated change.

On to “ATCGATGTTTTCTGAGTTACTTTTGTATCCCCACCCCCCCTCGAGCTTGCATGCCTGCAGGTCGGAGTACTGTCCTCCGAGCGGAGTACTGTCCTCCGAGCGGAGTACTGTCCTCCGAGCGGAGTACTGTCCTCCGAGCGGAGTACTGTCCTCCGAGCGCAGACTCTAGAGGATCCGAGAACATTTTGACACCCCCATAATATTTTTCCAGAATTAACAGTATAAATTGCATCTCTTGTTCAAGAGTTCCCTATCACTCTCTTTAATCACTACTCACAGTAACCTCAACTCCTGCCACAAGCTT (double strand) [5x GAL4 sites-IL2 minimal promoter (pLH-G5-IL2-SEAP)]”, for which the “activity on this sequence” value in series [1] and in series [2] was “active” each time.
